Reference: publication PMC12617493 (Science Advances, 2025)
These are yes or no findings as the source states them, for the method shown. Where a sequence is shown, tags or fusion partners need not be part of it.

Target: T1, GST-Ist2[590–946] (S. cerevisiae) (UniProt P38250)
T1 sequence: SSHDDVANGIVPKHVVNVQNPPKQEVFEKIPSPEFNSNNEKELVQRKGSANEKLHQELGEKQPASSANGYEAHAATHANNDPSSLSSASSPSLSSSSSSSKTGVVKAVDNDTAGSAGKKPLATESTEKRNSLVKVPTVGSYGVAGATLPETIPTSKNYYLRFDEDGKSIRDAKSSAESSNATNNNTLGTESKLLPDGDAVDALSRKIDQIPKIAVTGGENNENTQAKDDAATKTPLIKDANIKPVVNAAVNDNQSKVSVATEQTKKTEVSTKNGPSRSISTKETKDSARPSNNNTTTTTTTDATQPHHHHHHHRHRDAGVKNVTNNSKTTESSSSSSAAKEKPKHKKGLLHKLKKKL
Experiment: pull-down; GST constructs ([…]) immobilised on Glutathione Sepharose 4B beads; Osh6, its mutants, Osh4, ORD^Osh3 or ORD^ORP8 added at […]; 50 mM tris pH 7.4, 120 mM NaCl, 1 mM MgCl2, 1% TX-100, 1 mM DTT, 10% glycerol; 25°C, 1 hour; bound fraction by SDS-PAGE; both purified

binding: no binding (tested: 2.5 μM)
B1: ORD^Osh3 (Osh3[605–996]) (domain or fragment, UniProt P38713 605-996)
chain: SAQSSTETFTSKDLFALSYPKSVTRRNDIPEAAASPPSLLSFLRKNVGKDLSSIAMPVTSNEPISILQLISETFEYAPLLTKATQRPDPITFVSAFAISFLSIYRDKTRTLRKPFNPLLAETFELIREDMGFRLISEKVSHRPPVFAFFAEHLDWECSYTVTPSQKFWGKSIELNNEGILRLKFKTTGELFEWTQPTTILKNLIAGERYMEPVNEFEVHSSKGDKSHILFDKAGMFSGRSEGFKVSIIPPPSSNRKKETLAGKWTQSLANETTHETIWEVGDLVSNPKKKYGFTKFTANLNEITEIEKGNLPPTDSRLRPDIRAYEEGNVDKAEEWKLKLEQLQRERRNKGQDVEPKYFEKVSKNEWKYITGPKSYWERRKKHDWSDISQLW
